Target: PCP receptors
Assay: In vitro binding to PCP receptors with [^3 H]TCP
Details: rat brain membrane
Description: The test of binding to phenylcyclidine receptors (PCP receptors), performed in the presence of a ligand specific for PCP receptors, [^3 H]TCP, was used to investigate any undesirable interaction of the compounds of the invention with these receptors.
The principle of this technique is to place in competition the affinity of the test substance and that of a radioactive ligand specific for the receptor being studied.
The technique consists in incubating a preparation of rat brain membrane loaded with the labeled ligand specific for the receptor under study in solutions of varying concentration of the test substance. After filtration, one measures the radioactivity of the solution, which represents the displacement of this labeled ligand by the test substance.

SMILES: O=C(CCCN1CCC(O)(c2ccc(Cl)cc2)CC1)c1ccc(F)cc1 [Haloperidol, reference compound]
- IC50: 1.27 nM
